No constants are given. Whether binding was seen depends on the method and setting. For some assays here: In cells and extracts the contact can be indirect. Some binding calls cover weakened binding; strength is not graded here.
Columns and labels:
[1] = target: human SMG-1 (hSMG-1) (human) (UniProt Q96Q15); assay: co-immunoprecipitation from HeLa cell extract with anti-hSMG-1 antiserum L, detected as a phosphorylated band
[2] = target: human SMG-1 (hSMG-1) (human) (UniProt Q96Q15); assay: anion exchange fractionation of HeLa extract, immunoprecipitation of each fraction with antiserum C, phosphorylation, autoradiography
[3] = target: human SMG-1 (hSMG-1) (human) (UniProt Q96Q15); assay: co-immunoprecipitation from HeLa cell extract with anti-hSMG-1 antiserum N, L or C, Western blotting with anti AK026858.1-translated-product antibody
[4] = target: human SMG-1 (hSMG-1) (human) (UniProt Q96Q15); assay: co-immunoprecipitation from HeLa cell extract with anti-hSMG-1 antiserum C, detected as a phosphorylated band
[5] = target: human SMG-1 (hSMG-1) (human) (UniProt Q96Q15); assay: co-immunoprecipitation from HeLa cell extract with anti-hSMG-1 IgG (antibody N), SDS-PAGE, silver staining

The chains behind the UniProt entries cited, without tags or fusion partners.
UniProt Q96Q15: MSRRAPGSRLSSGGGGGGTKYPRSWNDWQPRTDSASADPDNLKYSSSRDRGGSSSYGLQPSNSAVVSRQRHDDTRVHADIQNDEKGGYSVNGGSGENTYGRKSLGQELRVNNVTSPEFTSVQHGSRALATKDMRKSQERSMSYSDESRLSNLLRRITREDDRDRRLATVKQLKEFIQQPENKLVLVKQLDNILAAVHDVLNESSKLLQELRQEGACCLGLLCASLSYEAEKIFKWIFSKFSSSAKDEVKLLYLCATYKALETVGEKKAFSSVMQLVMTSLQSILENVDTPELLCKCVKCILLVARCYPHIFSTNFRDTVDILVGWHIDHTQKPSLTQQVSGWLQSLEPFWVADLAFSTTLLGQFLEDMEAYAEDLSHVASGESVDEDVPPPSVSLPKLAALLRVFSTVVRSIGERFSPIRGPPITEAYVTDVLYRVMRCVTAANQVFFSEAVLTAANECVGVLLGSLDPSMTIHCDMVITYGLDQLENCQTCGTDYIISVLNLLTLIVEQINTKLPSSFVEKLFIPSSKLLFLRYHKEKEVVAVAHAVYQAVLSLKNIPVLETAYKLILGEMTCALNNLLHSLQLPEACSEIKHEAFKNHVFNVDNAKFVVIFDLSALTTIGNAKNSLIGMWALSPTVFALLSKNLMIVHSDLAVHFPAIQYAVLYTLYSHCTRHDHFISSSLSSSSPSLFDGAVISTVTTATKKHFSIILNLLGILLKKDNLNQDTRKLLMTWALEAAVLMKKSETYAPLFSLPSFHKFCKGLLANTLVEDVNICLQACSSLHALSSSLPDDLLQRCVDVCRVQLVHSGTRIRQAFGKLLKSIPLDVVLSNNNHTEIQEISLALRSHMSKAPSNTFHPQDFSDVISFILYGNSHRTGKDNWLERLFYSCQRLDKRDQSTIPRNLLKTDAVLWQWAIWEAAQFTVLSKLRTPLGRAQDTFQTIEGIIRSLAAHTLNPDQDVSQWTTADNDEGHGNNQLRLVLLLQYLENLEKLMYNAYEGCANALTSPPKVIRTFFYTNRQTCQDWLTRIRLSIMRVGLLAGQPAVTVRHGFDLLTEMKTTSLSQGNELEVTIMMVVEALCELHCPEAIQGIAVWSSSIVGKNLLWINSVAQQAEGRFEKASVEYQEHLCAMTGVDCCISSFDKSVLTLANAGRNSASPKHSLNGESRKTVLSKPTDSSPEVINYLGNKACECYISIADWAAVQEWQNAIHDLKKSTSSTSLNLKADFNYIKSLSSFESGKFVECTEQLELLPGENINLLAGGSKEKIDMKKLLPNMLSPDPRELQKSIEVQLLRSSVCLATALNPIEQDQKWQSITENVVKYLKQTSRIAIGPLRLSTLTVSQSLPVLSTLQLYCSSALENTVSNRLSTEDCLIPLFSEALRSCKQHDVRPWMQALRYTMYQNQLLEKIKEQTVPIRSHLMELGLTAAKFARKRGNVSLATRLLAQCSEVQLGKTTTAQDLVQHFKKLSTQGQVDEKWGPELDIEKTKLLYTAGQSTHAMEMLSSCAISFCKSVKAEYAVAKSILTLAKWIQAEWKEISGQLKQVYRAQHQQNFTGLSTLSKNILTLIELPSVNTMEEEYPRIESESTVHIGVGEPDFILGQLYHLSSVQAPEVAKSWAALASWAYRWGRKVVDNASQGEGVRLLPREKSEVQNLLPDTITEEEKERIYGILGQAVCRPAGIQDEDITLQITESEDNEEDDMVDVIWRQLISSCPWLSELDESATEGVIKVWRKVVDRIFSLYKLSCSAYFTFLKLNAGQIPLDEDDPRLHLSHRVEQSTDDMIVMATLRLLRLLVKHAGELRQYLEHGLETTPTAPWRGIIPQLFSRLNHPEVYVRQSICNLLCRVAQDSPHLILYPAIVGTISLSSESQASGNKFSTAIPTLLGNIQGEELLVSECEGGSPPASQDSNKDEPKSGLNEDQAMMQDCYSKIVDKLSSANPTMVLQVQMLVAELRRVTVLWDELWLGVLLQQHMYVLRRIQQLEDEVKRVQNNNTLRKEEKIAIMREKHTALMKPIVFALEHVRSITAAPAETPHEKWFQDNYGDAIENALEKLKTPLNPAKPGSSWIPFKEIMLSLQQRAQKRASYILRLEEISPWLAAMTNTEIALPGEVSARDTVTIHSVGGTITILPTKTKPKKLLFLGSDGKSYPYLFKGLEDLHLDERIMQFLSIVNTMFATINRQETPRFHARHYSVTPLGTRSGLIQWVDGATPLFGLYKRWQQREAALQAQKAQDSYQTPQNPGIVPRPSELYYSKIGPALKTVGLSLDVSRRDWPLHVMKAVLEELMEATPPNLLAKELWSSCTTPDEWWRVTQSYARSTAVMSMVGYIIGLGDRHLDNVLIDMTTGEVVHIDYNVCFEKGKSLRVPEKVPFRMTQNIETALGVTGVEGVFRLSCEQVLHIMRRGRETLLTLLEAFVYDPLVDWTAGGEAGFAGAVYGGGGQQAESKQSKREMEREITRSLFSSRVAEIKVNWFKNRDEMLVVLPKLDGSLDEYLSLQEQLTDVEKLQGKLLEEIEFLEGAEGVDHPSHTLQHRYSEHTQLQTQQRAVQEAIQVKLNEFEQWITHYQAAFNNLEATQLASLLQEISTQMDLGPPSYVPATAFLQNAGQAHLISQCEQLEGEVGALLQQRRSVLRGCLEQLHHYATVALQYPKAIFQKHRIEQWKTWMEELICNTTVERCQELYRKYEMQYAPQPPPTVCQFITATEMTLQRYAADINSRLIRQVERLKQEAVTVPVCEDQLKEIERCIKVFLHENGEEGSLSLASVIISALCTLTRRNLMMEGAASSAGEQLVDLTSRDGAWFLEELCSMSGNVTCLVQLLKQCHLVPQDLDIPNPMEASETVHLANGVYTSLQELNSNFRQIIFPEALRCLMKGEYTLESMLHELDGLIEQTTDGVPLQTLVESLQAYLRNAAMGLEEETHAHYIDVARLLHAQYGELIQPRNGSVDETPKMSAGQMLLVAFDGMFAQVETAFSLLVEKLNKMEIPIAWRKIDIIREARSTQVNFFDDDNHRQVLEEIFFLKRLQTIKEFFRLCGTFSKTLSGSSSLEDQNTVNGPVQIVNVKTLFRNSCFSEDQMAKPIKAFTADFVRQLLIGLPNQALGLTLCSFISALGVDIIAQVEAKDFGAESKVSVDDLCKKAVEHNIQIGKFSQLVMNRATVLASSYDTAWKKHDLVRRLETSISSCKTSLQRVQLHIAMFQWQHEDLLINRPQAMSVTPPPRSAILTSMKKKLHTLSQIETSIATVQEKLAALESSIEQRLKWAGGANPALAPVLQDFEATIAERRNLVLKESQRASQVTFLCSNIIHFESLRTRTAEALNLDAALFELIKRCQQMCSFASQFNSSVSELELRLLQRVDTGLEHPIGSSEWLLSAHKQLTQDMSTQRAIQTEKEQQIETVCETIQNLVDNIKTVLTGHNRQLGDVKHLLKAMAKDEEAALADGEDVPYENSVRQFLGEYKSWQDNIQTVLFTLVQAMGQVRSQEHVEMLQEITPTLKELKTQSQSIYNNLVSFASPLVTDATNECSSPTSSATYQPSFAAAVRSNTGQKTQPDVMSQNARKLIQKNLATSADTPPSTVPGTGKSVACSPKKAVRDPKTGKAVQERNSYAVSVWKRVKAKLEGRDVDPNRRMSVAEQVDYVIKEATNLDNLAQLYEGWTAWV

binding [1]: binds | binding [2]: binds | binding [3]: binds | binding [4]: binds | binding [5]: binds
B1: SMGBP1 (SMG Binding Protein 1) (protein)
chain: MAGPVSLRDLLMGASAWMGSESPGGSPTEGGGSAAGGPEPPWREDEICVVGIFGKTALRLNSEKFSLVNTVCDRQVFPLFRHQDPGDPGPGIRTEAGAVGEAGGAEDPGAAAGGSVRGSGAVAEGNRTEAGSQDYSLLQAYYSQESKVLYLLLTSICDNSQLLRACRALQSGEAGGGLSLPHAEAHEFWKHQEKLQCLSLLYLFSVCHILLLVHPTCSFDITYDRVFRALDGLRQKVLPLLKTAIKDCPVGKDWKLNCRPCPPRLLFLFQLNGALKVVPPRNQDPAHPDKPKKHSPKRRLQHALEDQIYRIFRKSRVLTNQSINCLFTVPANQAFVYIVPGSQEEDPVGMLLDQLRSHCTVKDPESLLVPAPLSGPRRYQVMRQHSRQQLSFHIDSSSSSSSGQLVDFTLWEFLWQHVELVLSKKGFDDSVGRNPQPSHFELPTYQKWISAASKLYEVAIDGKEEDLGSPTGELTSKILSSIKVLEGFLDIDTKFSENRCQKALPMAHSAYQSNLPHNYTMTVHKNQLAQALRVYSQHARGPAFHKYAMQLHEDCYKFWSNGHQLCEERSLTDQHCVHKFHSLPKSGEKPEADRNPPVLYHNSRARSTGACNCGRKQAPRDDPFDIKAANYDFYQLLEEKCCGKLDHINFPVFEPSTPDPAPAKNESSPAPPDSDADKLKEKEPQTQGESTSLSLALSLGQSTDSLGTYPADPQAGGDNPEVHGQVEVKTEKRPNFVDRQASTVEYLPGMLHSNCPKGLLPKFSSWSLVKLGPAKSYNFHTGLDQQGFIPGTNYLMPWDIVIRTRAEDEGDLDTNSWPAPNKAIPGKRSAVVMGRGRRRDDIARAFVGFEYEDSRGRRFMCSGPDKVMKVMGSGPKESALKALNSDMPLYILSSSQGRGLKPHYAQLMRLFVVVPDAPLQIILMPQVQPGPPPCPVFYPEKQEITLPPDGLWVLRFPYAYVTERGPCFPPKENVQLMSYKVLRGVLKAVTQ

— patent US20050196797A1
